Measured data: PubChem BioAssay AID504804 (Drosophila RNAi Screening Center, 2011)

Assay: 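dsRNAs that improve Kc cell survival under doxorubicin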 (primary screen)
Cell system: Drosophila Kc cells
Reagent: long dsRNA against Drosophila genes, 0.5 µg dsRNA per well
Time to read-out: 96 h (48 h knock-down, then 48 h drug)
Treatment: doxorubicin 5 µg/ml for 48 h, added 48 h after dsRNA
Read-out: 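Viability measured as cellular ATP by luminescence after 48 h knock-down then 48 h doxorubicin at 5 µg/ml; unnormalised plate counts for each replicate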
Reading the numbers: raw ATP luminescence: higher = more viable cells, protection from doxorubicin
Call rule: 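Active when both duplicate wells lie at least 2 SD above the plate mean and protection is confirmed by rescreening and independent dsRNAs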
In all, the deposit lists about 19,000 reagents; shown is a random part of those that have a named target and a result. Of all reagents, 47 (0.25%) are marked active. 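Signals are raw, not normalised; exact z-scores behind calls not deposited; actives needed confirmation, so some wells reaching 2 SD are inactive.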 Names joined by + are all predicted targets of the reagent. No sequences are given here.

The opening 10 entries, to show the layout:
no.	predicted target	amplicon	raw ATP luminescence, replicate 1	raw ATP luminescence, replicate 2	call
1	bero (GeneID 35355)	DRSC03211	74987	56560	inactive
2	mRpL11 (GeneID 41757)	DRSC15482	70050	67900	inactive
3	CG18661 (GeneID 50438)	DRSC02690	39010	48687	inactive
4	ZnT86D (GeneID 41342)	DRSC16091	65513	44227	inactive
5	CG43066 (GeneID 37129)	DRSC06927	1.85e5	1.87e5	inactive
6	CG14370 (GeneID 41659)	DRSC14832	66080	84840	inactive
7	RnpS1 (GeneID 41147)	DRSC15154	52663	29733	inactive
8	Rheb (GeneID 117332)	DRSC12148	56713	25957	inactive
9	CG42827 + CG42828	DRSC16116	58680	56540	inactive
10	lost (GeneID 40559)	DRSC12002	69913	70823	inactive

The list itself, from the first entry:
no.	predicted target	amplicon	raw ATP luminescence, replicate 1	raw ATP luminescence, replicate 2	call
1	bero (GeneID 35355)	DRSC03211	74987	56560	inactive
2	mRpL11 (GeneID 41757)	DRSC15482	70050	67900	inactive
3	CG18661 (GeneID 50438)	DRSC02690	39010	48687	inactive
4	ZnT86D (GeneID 41342)	DRSC16091	65513	44227	inactive
5	CG43066 (GeneID 37129)	DRSC06927	1.85e5	1.87e5	inactive
6	CG14370 (GeneID 41659)	DRSC14832	66080	84840	inactive
7	RnpS1 (GeneID 41147)	DRSC15154	52663	29733	inactive
8	Rheb (GeneID 117332)	DRSC12148	56713	25957	inactive
9	CG42827 + CG42828	DRSC16116	58680	56540	inactive
10	lost (GeneID 40559)	DRSC12002	69913	70823	inactive
11	lost (GeneID 40559)	DRSC12234	17447	21250	inactive
12	Kaz-m1 (GeneID 43154)	DRSC16990	59550	72660	inactive
13	CG1986 (GeneID 31925)	DRSC18197	2.90e5	2.82e5	inactive
14	CG17477 (GeneID 42067)	DRSC15239	72190	82790	inactive
15	Ir47a (GeneID 36095)	DRSC06215	44587	78270	inactive
16	yellow-b (GeneID 35005)	DRSC03639	98570	66837	inactive
17	Pex7 (GeneID 38994)	DRSC10651	66577	81153	inactive
18	CG8960 (GeneID 38280)	DRSC08612	60343	84833	inactive
19	BNIP3 (GeneID 40278)	DRSC11761	73807	68127	inactive
20	Adi1 (GeneID 326189)	DRSC10945	1.33e5	66427	inactive
21	CG3281 (GeneID 41445)	DRSC15470	59357	30570	inactive
22	CG30098 (GeneID 246456)	DRSC05605	51577	48773	inactive
23	Acp95EF (GeneID 47852)	DRSC14102	65430	58890	inactive
24	PGRP-SC1b (GeneID 35861)	DRSC07215	53397	45543	inactive
25	Nup58 (GeneID 42342)	DRSC16235	58160	69960	inactive
26	CG13318 (GeneID 41048)	DRSC14581	54103	54990	inactive
27	CG14538 (retired record) (GeneID 34056)	DRSC02396	37143	56550	inactive
28	eIF4E7 (GeneID 31059)	DRSC17782	36760	58720	inactive
29	eIF4E7 (GeneID 31059)	DRSC18623	45820	56790	inactive
30	sphinx1 (GeneID 318005)	DRSC10993	82300	93903	inactive
31	CG33278 (GeneID 2768946)	DRSC10336	77697	82747	inactive
32	CG3632 (GeneID 32589)	DRSC19137	2.84e5	3.26e5	inactive
33	CG6951 (GeneID 40222)	DRSC10755	71983	65153	inactive
34	CG32655 (GeneID 318143)	DRSC18925	1.55e5	1.78e5	inactive
35	U2A (GeneID 35713)	DRSC06445	43677	73883	inactive
36	CG42615 (GeneID 8674036)	DRSC05121	88187	77607	inactive
37	CG43980 (GeneID 2768995)	DRSC11500	69173	62470	inactive
38	CG43980 (GeneID 2768995)	DRSC11646	70700	62987	inactive
39	Pebp1 (GeneID 42644)	DRSC15354	47370	54130	inactive
40	CG10984 (GeneID 39446)	DRSC09817	35107	32497	inactive
41	Bhmt (GeneID 35153)	DRSC02079	51653	63673	inactive
42	Vm32E (GeneID 34558)	DRSC03474	32987	60437	inactive
43	CG31683 + CG18858	DRSC02703	67700	64053	inactive
44	CG15649 (GeneID 37371)	DRSC04240	61723	58320	inactive
45	COX5A (GeneID 41432)	DRSC16611	50773	41623	inactive
46	ND-49 (GeneID 43798)	DRSC17151	36660	30490	inactive
47	Gapdh2 (GeneID 32545)	DRSC20246	3.50e5	2.65e5	inactive
48	dac (GeneID 34982)	DRSC03518	54400	77827	inactive
49	Prosbeta5 (GeneID 45269)	DRSC07517	31773	59767	inactive
50	CG11590 (GeneID 32368)	DRSC19411	3.80e5	3.38e5	inactive
51	CG3961 (GeneID 40056)	DRSC10390	18047	26997	inactive
52	CG3961 (GeneID 40056)	DRSC10391	44737	36140	inactive
53	CG33191 + Pif1B	DRSC12706	73357	61697	inactive
54	ari-2 (GeneID 37542)	DRSC04672	59167	35570	inactive
55	NijA (GeneID 39215)	DRSC10637	97137	68880	inactive
56	CG33704 (GeneID 3772359)	DRSC03838	76687	89917	inactive
57	CG9926 (GeneID 41700)	DRSC16582	58613	23393	inactive
58	Adck1 (GeneID 37938)	DRSC04394	63577	57947	inactive
59	Jupiter (GeneID 41392)	DRSC15204	52650	23527	inactive
60	Jupiter (GeneID 41392)	DRSC15205	58250	56053	inactive
61	Jupiter (GeneID 41392)	DRSC15389	57633	53093	inactive
62	Ku80 (GeneID 34930)	DRSC02699	64593	70323	inactive
63	CG17752 (GeneID 42337)	DRSC15262	51490	70560	inactive
64	SoxN (GeneID 44275)	DRSC03440	43027	65897	inactive
65	betaTub85D (GeneID 41124)	DRSC16910	55270	45673	inactive
66	CG13723 (GeneID 39925)	DRSC10052	30663	22467	inactive
67	CG3546 (GeneID 31389)	DRSC18308	41310	54300	inactive
68	snama (GeneID 37857)	DRSC04049	51077	56217	inactive
69	CG42523 (GeneID 8674082)	DRSC00251	2.63e5	2.46e5	inactive
70	Gbp2 (GeneID 36937)	DRSC06069	75223	65963	inactive
71	CG9184 (GeneID 38152)	DRSC08636	2.28e5	2.63e5	inactive
72	Rab11 (GeneID 42501)	DRSC16809	41130	47540	inactive
73	CG13599 (GeneID 42829)	DRSC14602	64630	65260	inactive
74	CG12948 (GeneID 41187)	DRSC14576	63273	74360	inactive
75	Tdg (GeneID 43796)	DRSC17119	2.10e5	2.08e5	inactive
76	Tdg (GeneID 43796)	DRSC17169	58010	52290	inactive
77	Trxr2 (GeneID 40475)	DRSC11900	51613	52503	inactive
78	Cpsf6 (GeneID 38937)	DRSC10781	32420	36640	inactive
79	Naa40 (GeneID 43500)	DRSC16265	55960	39320	inactive
80	CG14238 (GeneID 43195)	DRSC14732	38990	47410	inactive
81	CG13725 (GeneID 39928)	DRSC10054	2.02e5	2.26e5	inactive
82	Nlg3 (GeneID 40912)	DRSC12477	63310	58887	inactive
83	Nlg3 (GeneID 40912)	DRSC12524	58933	52490	inactive
84	Nlg3 (GeneID 40912)	DRSC12540	65163	56497	inactive
85	Nlg3 (GeneID 40912)	DRSC12574	48660	61970	inactive
